Data as given in PubChem BioAssay AID1159599 (NIAID, 2016)
Screen: 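Mouse macrophage genes that control Tnf-alpha promoter output upon LPS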. Cells: mouse RAW264.7 G9 macrophage reporter clone cells. Reagent: single siRNA against mouse genes. Timing: 48 to 72 h after siRNA transfection, LPS for the last 16 h. Challenge: LPS (Salmonella minnesota R595), 16 h before fixation; dose not stated. Measurement: 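High-content imaging of red fluorescence driven by the Tnf promoter after LPS, background subtracted, scored per siRNA as a plate-wise median/MAD robust z-score, replicate mean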. Direction: Tnf reporter z-score: higher = stronger Tnf promoter reporter signal after LPS. Hit rule: 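Active when the replicate-mean Tnf reporter z-score is about -1.5 or lower, or about 1.5 or higher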. Meaning of the calls: active = strong change either way; inactive = little change.
Here is an unselected part of 756 reagents. 130 of all reagents (17%) were called active. 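Calls are two-sided: actives include siRNAs that raised the Tnf reporter as well as ones that lowered it.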 Entries without a mark were called inactive. Reagents against one gene are numbered here. Not stated in the record: the amount of reagent.

Tnf reporter z-score, replicate mean, by target and reagent
Tlr8: #1 1.07; #2 -0.341; #3 -0.34; #4 0.784; #5 -2.05 (active); #6 0.174
Myd88: #1 -1.06; #2 -2.21 (active); #3 -0.842; #4 -1.52 (active); #5 -0.573; #6 0.176
Tlr6: #1 0.504; #2 1.51 (active); #3 -1.88 (active); #4 0.113; #5 -0.474; #6 -0.453
Il12a: #1 0.553; #2 -1.82 (active); #3 -1.77 (active); #4 -0.261; #5 -1.81 (active); #6 0.614
Ly86: #1 -0.15; #2 0.218; #3 -1.2; #4 0.792; #5 1.22; #6 -0.31
Cxcl11: #1 -0.323; #2 -0.585; #3 0.109; #4 -0.217; #5 -0.245; #6 -1.56 (active)
Sigirr: #1 -1.15; #2 -0.532; #3 -1.23; #4 0.559; #5 -0.562; #6 0.484
Ripk3: #1 -0.404; #2 0.206; #3 0.11; #4 -0.145; #5 0.977; #6 -1.86 (active)
Irak1: #1 -0.995; #2 0.926; #3 -0.393; #4 1.54 (active); #5 -0.0589; #6 -0.785
Itgam: #1 0.492; #2 -0.547; #3 0.446; #4 0.345; #5 -0.269; #6 -1.11
Tradd: #1 3.35 (active); #2 -0.474; #3 0.187; #4 0.528; #5 -0.785; #6 -0.36

Copied from above for reference:
Tnf reporter z-score, replicate mean, by target and reagent
Sigirr: #4 0.559; #5 -0.562; #6 0.484
Ripk3: #1 -0.404; #2 0.206; #3 0.11

Additional results follow:
Tnf reporter z-score, replicate mean, by target and reagent
Jun: #1 -1.51 (active); #2 -1.05; #3 -0.983; #4 -0.853; #5 -1.08; #6 -0.153
Pik3cg: #1 2.31 (active); #2 -1.75 (active); #3 0.623; #4 0.522; #5 -0.648; #6 -1.97 (active)
Ikbkg: #1 0.221; #2 -1.55 (active); #3 -1.23; #4 -3.03 (active); #5 -1.84 (active); #6 -0.812
Stat1: #1 0.49; #2 0.727; #3 0.141; #4 -0.398; #5 -0.765; #6 -1.73 (active)
Pik3cd: #1 -0.62; #2 -1.27; #3 -0.685; #4 -0.164; #5 -1.45; #6 -1.07
Sp1: #1 -1.23; #2 -1.32; #3 -1.79 (active); #4 -0.753; #5 0.023; #6 -1.93 (active)
Akt1: #1 0.398; #2 -1.31; #3 0.616; #4 -0.148; #5 -0.948; #6 -1.4
Irf3: #1 1.39; #2 -0.331; #3 -1.69 (active); #4 -1.71 (active); #5 -0.402; #6 0.515
